The other results are listed elsewhere or left out. Only a few entries rise above the background.
How the values were obtained:
Test in all cases: fluorescence intensity of antibody binding to polysaccharide-coupled beads; higher = stronger binding
[1] = target: pneumococcal polysaccharide Pn2
[2] = target: pneumococcal polysaccharide Pn20A
[3] = target: pneumococcal polysaccharide Pn20B
[4] = target: pneumococcal polysaccharide Pn21
[5] = target: pneumococcal polysaccharide Pn22A
[6] = target: pneumococcal polysaccharide Pn22F
[7] = target: pneumococcal polysaccharide Pn23A
[8] = target: pneumococcal polysaccharide Pn23B
[9] = target: pneumococcal polysaccharide Pn23F
[10] = target: pneumococcal polysaccharide Pn24A
[11] = target: pneumococcal polysaccharide Pn24B
[12] = target: pneumococcal polysaccharide Pn24F
[13] = antibody concentration 2337.65 ng/mL
[14] = antibody concentration 12500 ng/mL
[15] = antibody concentration 0.1 ng/mL
[16] = antibody concentration 0.534724 ng/mL
[17] = antibody concentration 2.8593 ng/mL
[18] = antibody concentration 15.2894 ng/mL
[19] = antibody concentration 81.7561 ng/mL
[20] = antibody concentration 437.17 ng/mL

B1: 4-127.2 (protein)
chain 1: QVQLQESGPGLVKPSETLSLTCAVSGYSVNSGHGWTWIRQSPGKGLEWIGYIGGGSGSSNYNPSLKSRVTISKDTSNNQLSLKLRSLTTADTAMYYCARRVPADRSGNDYWGQGVLVTVSS
chain 2: QSVLTQPPSVSGDPGQRVTISCTGSSSNIGDYYGYWYQQFPGTAPKLLIFDDNNRPSGISDRFSGSKAGTSASLTITGLQPGDEADYYCGAWDGSLNAHVFGSGTKLTVL
For B1, the fluorescence intensity [1, 13] was 22.5 MFI, the fluorescence intensity [1, 14] was 25.5 MFI and the fluorescence intensity [2, 15] was 22.2 MFI. The fluorescence intensity [2, 16] was 21.2 MFI, the fluorescence intensity [2, 17] was 22 MFI and the fluorescence intensity [2, 18] was 22.2 MFI. The fluorescence intensity [2, 19] was 21.5 MFI, the fluorescence intensity [2, 20] was 23.5 MFI and the fluorescence intensity [2, 13] was 34 MFI. It also gave a fluorescence intensity [2, 14] of 214 MFI, a fluorescence intensity [3, 15] of 24 MFI and a fluorescence intensity [3, 16] of 23 MFI. It also gave a fluorescence intensity [3, 17] of 22.5 MFI, a fluorescence intensity [3, 18] of 22 MFI and a fluorescence intensity [3, 19] of 23 MFI. It also gave a fluorescence intensity [3, 20] of 24.5 MFI, a fluorescence intensity [3, 13] of 26 MFI and a fluorescence intensity [3, 14] of 50 MFI. It also gave a fluorescence intensity [4, 15] of 17.2 MFI, a fluorescence intensity [4, 16] of 19.5 MFI and a fluorescence intensity [4, 17] of 18.5 MFI. The fluorescence intensity [4, 18] was 18.5 MFI, the fluorescence intensity [4, 19] was 17.2 MFI and the fluorescence intensity [4, 20] was 18 MFI. It also gave a fluorescence intensity [4, 13] of 18.2 MFI, a fluorescence intensity [4, 14] of 26 MFI and a fluorescence intensity [5, 15] of 21.5 MFI. For the same binder, the fluorescence intensity [5, 16] was 20.5 MFI, the fluorescence intensity [5, 17] was 21.5 MFI and the fluorescence intensity [5, 18] was 19.5 MFI. The fluorescence intensity [5, 19] was 21 MFI, the fluorescence intensity [5, 20] was 21 MFI and the fluorescence intensity [5, 13] was 26 MFI. For the same binder, the fluorescence intensity [5, 14] was 88.5 MFI, the fluorescence intensity [6, 15] was 30.2 MFI and the fluorescence intensity [6, 16] was 32 MFI. It also gave a fluorescence intensity [6, 17] of 31.8 MFI, a fluorescence intensity [6, 18] of 27.8 MFI and a fluorescence intensity [6, 19] of 30 MFI. The fluorescence intensity [6, 20] was 30.8 MFI, the fluorescence intensity [6, 13] was 33 MFI and the fluorescence intensity [6, 14] was 46 MFI. For the same binder, the fluorescence intensity [7, 15] was 23.5 MFI, the fluorescence intensity [7, 16] was 25.8 MFI and the fluorescence intensity [7, 17] was 24.5 MFI. It also gave a fluorescence intensity [7, 18] of 23.8 MFI, a fluorescence intensity [7, 19] of 26.5 MFI and a fluorescence intensity [7, 20] of 29.5 MFI. For the same binder, the fluorescence intensity [7, 13] was 52.5 MFI, the fluorescence intensity [7, 14] was 67.8 MFI and the fluorescence intensity [8, 15] was 28.5 MFI. For the same binder, the fluorescence intensity [8, 16] was 29 MFI, the fluorescence intensity [8, 17] was 28.5 MFI and the fluorescence intensity [8, 18] was 28.2 MFI. The fluorescence intensity [8, 19] was 28.5 MFI, the fluorescence intensity [8, 20] was 28.5 MFI and the fluorescence intensity [8, 13] was 32 MFI. For the same binder, the fluorescence intensity [8, 14] was 36.5 MFI, the fluorescence intensity [9, 15] was 16.5 MFI and the fluorescence intensity [9, 16] was 16.5 MFI. The fluorescence intensity [9, 17] was 17.5 MFI, the fluorescence intensity [9, 18] was 17.5 MFI and the fluorescence intensity [9, 19] was 16.8 MFI. It also gave a fluorescence intensity [9, 20] of 20.8 MFI, a fluorescence intensity [9, 13] of 22 MFI and a fluorescence intensity [9, 14] of 28.5 MFI. The fluorescence intensity [10, 15] was 15 MFI, the fluorescence intensity [10, 16] was 15.2 MFI and the fluorescence intensity [10, 17] was 15 MFI. For the same binder, the fluorescence intensity [10, 18] was 16.2 MFI, the fluorescence intensity [10, 19] was 15.2 MFI and the fluorescence intensity [10, 20] was 15 MFI. For the same binder, the fluorescence intensity [10, 13] was 16.8 MFI, the fluorescence intensity [10, 14] was 28 MFI and the fluorescence intensity [11, 15] was 16.8 MFI. For the same binder, the fluorescence intensity [11, 16] was 17 MFI, the fluorescence intensity [11, 17] was 16 MFI and the fluorescence intensity [11, 18] was 18.5 MFI. For the same binder, the fluorescence intensity [11, 19] was 17.5 MFI, the fluorescence intensity [11, 20] was 18.5 MFI and the fluorescence intensity [11, 13] was 23 MFI. For the same binder, the fluorescence intensity [11, 14] was 50 MFI, the fluorescence intensity [12, 15] was 19 MFI and the fluorescence intensity [12, 16] was 16 MFI. It also gave a fluorescence intensity [12, 17] of 18 MFI, a fluorescence intensity [12, 18] of 17 MFI and a fluorescence intensity [12, 19] of 18.5 MFI. The fluorescence intensity [12, 20] was 20.5 MFI, the fluorescence intensity [12, 13] was 27.8 MFI and the fluorescence intensity [12, 14] was 40.5 MFI.

Reference: the supplement of paper PMC11438910
